Literature values in patent US8993767B2, “Multiphoton activable quinoline derivatives, their preparation and their uses” (Centre National de la Recherche Scientifique, priority 2010, dated 2015).
Some entries share one result that the patent states for a list of compounds.

Conditions: at 720-980 nm wavelength; cited from earlier work

Row | Substance | two-photon cross-section δu [GM]
1 | ortho-nitrophenylethyl [NPE] | < 0.1
2 | α-carboxy-ortho-nitrobenzyl [CNB] | < 0.1
